Values quoted from earlier work, collected in patent US20090104212A1, “METHODS AND SYSTEMS FOR TREATING CELL PROLIFERATION DISORDERS USING TWO-PHOTON SIMULTANEOUS ABSORPTION” (Immunolight, priority 2007, published 2009).
At least one compound was matched to its structure with a doubt left.

What was measured:
[1] = clinical studies, 652 nm light
tumors = details: in vivo

Q: Which tissue effect [1] does the source give for `Oc1cccc(-c2c3nc(c(-c4cccc(O)c4)c4ccc([nH]4)c(-c4cccc(O)c4)c4nc(c(-c5cccc(O)c5)c5ccc2[nH]5)CC4)C=C3)c1` [Foscan, Tetra (m-hydroxyphenyl) chlorin] here?
A: The tissue effect was “up to 10 mm”.

Q: What about the “selectivity for tumors compared to normal tissues” value (tumors) of the same molecule?
A: The value was “more selectively a photosensitizer in tumors than normal tissues”.
